# Assay results as given in PubChem BioAssay AID330 (DTP/NCI, 2004).
# The list shows only some results of the screen, not a fair sample: it gathers tests that were run many times, whatever their T/C, doses with no T/C, and many T/C values between a quarter and a half above the control. Other doses and runs of a compound stand elsewhere. T/C: endpoint of the treated group in % of that of the vehicle group. Some doses have a count of surviving animals in place of a T/C: the source holds a T/C of zero for them, seemingly a mark for toxic or unscored doses. Some survivor counts are full or nearly so, which does not show that the dose was tolerated: survival well below the control is almost never listed, so the zero probably covers shortened survival too. Counts of survivors are from the toxicity check (mostly the fifth day) where no day follows; animals may have died later. Schedules are NCI's codes, read here as Q, the interval in days (D) or hours (H), X, the number of doses. Some entries hold several experiments; their values stand side by side, smallest first. Some structures stand for samples that the source files as different forms (salt, stereo form or complex); doses refer to the form tested. Where survival is the endpoint, this PubChem deposit counts one and a half times the control or more as active, and values a quarter to a half above the control carry no call in these data; other NCI protocols may use other cut-offs. Some T/C values are followed by the survivors on the day toxicity was checked, most often the fifth; without a count, all were alive then.
# Tested on: P388 leukemia ip, CD2F1 mice, survival T/C
# Assay: NCI In Vivo Anticancer Drug Screen. Data for tumor model P388 Leukemia (intraperitoneal) in CD2F1 (CDF1) mice
# Conditions: T/C endpoint: median survival time, higher T/C = longer survival
# [1] = dose: 25.0 mg/kg/injection, schedule: Q01DX005 (ip), vehicle: Klucel (hydroxypropylcellulose) (HPC)
# [2] = dose: 50.0 mg/kg/injection, schedule: Q01DX005 (ip), vehicle: Klucel (hydroxypropylcellulose) (HPC)
# [3] = dose: 100.0 mg/kg/injection, schedule: Q01DX005 (ip), vehicle: Klucel (hydroxypropylcellulose) (HPC)
# [4] = dose: 200.0 mg/kg/injection, schedule: Q01DX005 (ip), vehicle: Klucel (hydroxypropylcellulose) (HPC)
# [5] = dose: 12.5 mg/kg/injection, schedule: Q01DX009 (ip), vehicle: saline
# [6] = dose: 25.0 mg/kg/injection, schedule: Q01DX009 (ip), vehicle: saline
# [7] = dose: 50.0 mg/kg/injection, schedule: Q01DX009 (ip), vehicle: saline
# [8] = dose: 200.0 mg/kg/injection, schedule: Q01DX009 (ip), vehicle: saline with Tween-80
# [9] = dose: 120.0 mg/kg/injection, schedule: Q01DX005 (ip), vehicle: saline with Tween-80
# [10] = dose: 240.0 mg/kg/injection, schedule: Q01DX005 (ip), vehicle: saline with Tween-80
# [11] = dose: 50.0 mg/kg/injection, schedule: Q01DX009 (ip), vehicle: Klucel (hydroxypropylcellulose) (HPC)
# [12] = dose: 100.0 mg/kg/injection, schedule: Q01DX009 (ip), vehicle: Klucel (hydroxypropylcellulose) (HPC)
# [13] = dose: 100.0 mg/kg/injection, schedule: Q01DX009 (ip), vehicle: saline
# [14] = dose: 200.0 mg/kg/injection, schedule: Q01DX009 (ip), vehicle: saline
# [15] = dose: 200.0 mg/kg/injection, schedule: Q01DX005 (ip), vehicle: saline with Tween-80
structure (smiles),measurement,setting,value
CCC[As](CCC)SC1OC(C2COC(C)(C)O2)C2OC(C)(C)OC12 (stereo not given),survivor count,"dose: 50.0 mg/kg/injection, schedule: Q01DX009 (ip), vehicle: distilled water + Tween-80",0 of 6
same,survivor count,"dose: 100.0 mg/kg/injection, schedule: Q01DX009 (ip), vehicle: distilled water + Tween-80",0 of 6
same,survivor count,"dose: 200.0 mg/kg/injection, schedule: Q01DX009 (ip), vehicle: distilled water + Tween-80",0 of 6
c1ccc2c[n+](CCCCCCCCCC[n+]3ccc4ccccc4c3)ccc2c1,survivor count,"dose: 10.0 mg/kg/injection, schedule: Q01DX009 (ip), vehicle: saline",6 of 6
CCN(CC)CC.CCOc1ccc(NC(=O)N=C=[N-])cc1.[CH-]1CCCCC1.[CH-]1CCCCC1.[CH-]1CCCCC1.[Cl-].[Sn+4],survivor count,[1],0 of 6
same,survivor count,[2],0 of 6
same,survivor count,[3],0 of 6
same,survivor count,[4],0 of 6
CNC(=O)OCc1c(COC(=O)NC)c(C)n(-c2ccc(Cl)cc2)c1C,T/C,[5],145 % of control
same,T/C,[6],142 % of control
same,survivor count,[7],5 of 6 and 6 of 6
CCOC(=O)[C@@H](F)[C@H](Br)C(=O)OCC,T/C,[8],125 and 126 % of control
same,survivor count,"dose: 400.0 mg/kg/injection, schedule: Q01DX009 (ip), vehicle: saline with Tween-80",3 of 6
CCN(CC)C(=O)NCCCCCCNC(=O)N(CC)CC,survivor count,[9],6 of 6
same,survivor count,[10],6 of 6
COc1cc2c[n+](C)c3c4cc5c(cc4ccc3c2cc1OC)OCO5 (tested in a mixture with another compound),T/C,"dose: 1.56 mg/kg/injection, schedule: Q01DX009 (ip), vehicle: other",127 % of control
same,T/C,"dose: 6.25 mg/kg/injection, schedule: Q01DX009 (ip), vehicle: water",137 % of control
same,T/C,"dose: 11.1 mg/kg/injection, schedule: Q01DX009 (ip), vehicle: other",128 % of control
same,T/C,"dose: 12.5 mg/kg/injection, schedule: Q01DX009 (ip), vehicle: Klucel (hydroxypropylcellulose) (HPC)",142 % of control
same,T/C,"dose: 12.5 mg/kg/injection, schedule: Q01DX009 (ip), vehicle: water",147 % of control
same,T/C,"dose: 16.7 mg/kg/injection, schedule: Q01DX009 (ip), vehicle: other",143 % of control
same,T/C,"dose: 25.0 mg/kg/injection, schedule: Q01DX009 (ip), vehicle: Klucel (hydroxypropylcellulose) (HPC)",131 % of control
same,survivor count,"dose: 25.0 mg/kg/injection, schedule: Q01DX009 (ip), vehicle: other",6 of 6
same,T/C,"dose: 25.0 mg/kg/injection, schedule: Q01DX009 (ip), vehicle: water",131 % of control
same,survivor count,"dose: 37.5 mg/kg/injection, schedule: Q01DX009 (ip), vehicle: other",4 of 6
same,survivor count,[11],6 of 6
same,survivor count,[12],4 of 6
same,survivor count,"dose: 100.0 mg/kg/injection, schedule: Q01DX009 (ip), vehicle: water",4 of 6
N=C(N)c1ccc(NC(=O)c2cc3ccc(C(=N)N)cc3o2)cc1,survivor count,"dose: 100.0 mg/kg/injection, schedule: Q04DX003 (ip), vehicle: suspension in saline",0 of 6
same,survivor count,"dose: 200.0 mg/kg/injection, schedule: Q04DX003 (ip), vehicle: suspension in saline",0 of 6
same,survivor count,"dose: 400.0 mg/kg/injection, schedule: Q04DX003 (ip), vehicle: suspension in saline",0 of 6
C[CH2][Sn][Cl],survivor count,[7],0 of 6
same,survivor count,[13],0 of 6
same,survivor count,[14],5 of 6
COc1ccc(C)c2c(NCCCCCCCCNc3c4ccccc4nc4c(OC)ccc(C)c34)c3ccccc3nc12,survivor count,"dose: 20.0 mg/kg/injection, schedule: Q01DX009 (ip), vehicle: water",3 of 6
same,survivor count,"dose: 40.0 mg/kg/injection, schedule: Q01DX009 (ip), vehicle: water",0 of 6
CC1CN(C(C)(C)C)CO1 (stereo not given),T/C,"dose: 25.0 mg/kg/injection, schedule: Q01DX005 (ip), vehicle: saline",126 % of control
same,survivor count,"dose: 100.0 mg/kg/injection, schedule: Q01DX005 (ip), vehicle: saline",2 of 6
N=C(N)c1ccc(OCCCCOc2ccc(N)cc2Cl)cc1,survivor count,[9],4 of 6
same,survivor count,[10],0 of 6
O=C1C2C3C=CC(C3)C2C(=O)N1CNc1ccc2nc(SC3C=CCCC3)sc2c1 (stereo not given),survivor count,[12],6 of 6
CS(=O)(=O)Oc1c(Cl)cc(C(=O)c2ccc(Cl)cc2Cl)cc1Cl,T/C,"dose: 100.0 mg/kg/injection, schedule: Q04DX002 (ip), vehicle: saline with Tween-80",139 % of control
same,T/C,"dose: 200.0 mg/kg/injection, schedule: Q04DX002 (ip), vehicle: saline with Tween-80",135 % of control
same,survivor count,"dose: 400.0 mg/kg/injection, schedule: Q04DX002 (ip), vehicle: saline with Tween-80",4 of 6
Nc1nc2[nH]c(=O)cnc2c(=O)[nH]1,survivor count,"dose: 75.0 mg/kg/injection, schedule: Q01DX009 (ip), vehicle: saline",6 of 6
same,survivor count,"dose: 150.0 mg/kg/injection, schedule: Q01DX009 (ip), vehicle: saline",6 of 6
CCOc1cc(CC[N+](C)(C)C)cc2c1ccc1ccc(OC)c(OC)c12,survivor count,"dose: 50.0 mg/kg/injection, schedule: Q01DX005 (ip), vehicle: saline with Tween-80",0 of 6
same,survivor count,"dose: 100.0 mg/kg/injection, schedule: Q01DX005 (ip), vehicle: saline with Tween-80",0 of 6
same,survivor count,[15],0 of 6
c1ccc(CCNCCN2CCNCC2)cc1,survivor count,"dose: 240.0 mg/kg/injection, schedule: Q01DX005 (ip), vehicle: saline",0 of 6
Oc1ccc(/C=N/NC(=S)NN2CCOCC2)nc1,survivor count,[11],6 of 6
CSc1ccc2c(c1)C(N1CCN(C)CC1)Cc1ccccc1S2 (stereo not given),T/C,"dose: 6.25 mg/kg/injection, schedule: Q01DX009 (ip), vehicle: saline",128 and 135 % of control [5 of 6 alive]
same,survivor count,[5],6 of 6
same,T/C,"dose: 25.0 mg/kg/injection, schedule: Q01DX009 (ip), vehicle: saline with Tween-80",141 % of control
same,survivor count,[6],6 of 6
same,survivor count,"dose: 50.0 mg/kg/injection, schedule: Q01DX009 (ip), vehicle: saline with Tween-80",3 of 6
same,survivor count,[7],3 of 6 and 5 of 6
same,survivor count,[13],3 of 6
same,survivor count,[14],0 of 6
CCc1cccc(NC(=O)Sc2ccc(O)cc2)c1,survivor count,[8],5 of 6
CC(C)CN=C(N)Nc1cccc(NC(=O)Nc2ccc(Cl)cc2)c1,survivor count,"dose: 100.0 mg/kg/injection, schedule: Q01DX009 (ip), vehicle: saline with Tween-80",4 of 6
same,survivor count,[8],0 of 6
C=CCNCCC1CCCCCC1,survivor count,[3],5 of 5
same,survivor count,[4],0 of 5
CCN(C)N=Nc1ccc(C(N)=O)cc1,T/C,[2],127 % of control
same,T/C,"dose: 100.0 mg/kg/injection, schedule: Q01DX005 (ip), vehicle: Klucel (hydroxypropylcellulose) (HPC), evaluated on day 20",136 % of control
same,T/C,"dose: 100.0 mg/kg/injection, schedule: Q01DX005 (ip), vehicle: Klucel (hydroxypropylcellulose) (HPC), evaluated on day 30",136 % of control
same,survivor count,[4],5 of 5
N#CC1C2C1C1C=CC2n2c(=O)n(-c3ccccc3)c(=O)n21 (stereo not given),survivor count,"dose: 12.5 mg/kg/injection, schedule: Q01DX005 (ip), vehicle: Klucel (hydroxypropylcellulose) (HPC)",5 of 5
same,survivor count,[3],3 of 5
same,survivor count,[4],0 of 5
COc1ccc(CNCC#N)c(OC)c1,survivor count,[15],0 of 6
Cc1cccc(Nc2nc(C)nc3[nH]cc(-c4ccccc4)c23)c1,survivor count,[1],6 of 6
same,survivor count,[2],6 of 6
same,survivor count,[3],6 of 6
